PMC12199433
These are yes or no findings as the source states them, for the method shown. Binding seen in cells or lysates may run through a third protein. Some results given as binding are weak or reduced against the parent protein; the word gives no strength.

The chains behind the UniProt entries cited, without tags or fusion partners.
UniProt Q04207: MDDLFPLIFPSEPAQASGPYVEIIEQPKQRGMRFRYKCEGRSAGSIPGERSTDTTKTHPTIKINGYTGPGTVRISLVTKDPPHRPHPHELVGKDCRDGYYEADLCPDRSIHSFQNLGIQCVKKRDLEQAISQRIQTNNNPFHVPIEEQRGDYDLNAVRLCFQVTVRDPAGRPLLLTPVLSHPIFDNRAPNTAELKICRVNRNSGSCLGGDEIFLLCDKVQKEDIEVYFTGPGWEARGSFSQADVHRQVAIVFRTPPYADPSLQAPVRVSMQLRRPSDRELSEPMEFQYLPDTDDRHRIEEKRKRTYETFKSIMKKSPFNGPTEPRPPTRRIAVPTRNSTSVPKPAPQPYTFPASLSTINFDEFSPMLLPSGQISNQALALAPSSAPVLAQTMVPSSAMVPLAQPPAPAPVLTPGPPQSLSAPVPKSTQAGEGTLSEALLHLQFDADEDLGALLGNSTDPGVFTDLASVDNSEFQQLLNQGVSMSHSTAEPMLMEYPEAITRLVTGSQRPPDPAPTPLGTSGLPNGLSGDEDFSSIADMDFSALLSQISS

Biological target: T1, SIRT2 (mouse (endogenous in BV-2)) (UniProt Q8VDQ8)
T1 sequence: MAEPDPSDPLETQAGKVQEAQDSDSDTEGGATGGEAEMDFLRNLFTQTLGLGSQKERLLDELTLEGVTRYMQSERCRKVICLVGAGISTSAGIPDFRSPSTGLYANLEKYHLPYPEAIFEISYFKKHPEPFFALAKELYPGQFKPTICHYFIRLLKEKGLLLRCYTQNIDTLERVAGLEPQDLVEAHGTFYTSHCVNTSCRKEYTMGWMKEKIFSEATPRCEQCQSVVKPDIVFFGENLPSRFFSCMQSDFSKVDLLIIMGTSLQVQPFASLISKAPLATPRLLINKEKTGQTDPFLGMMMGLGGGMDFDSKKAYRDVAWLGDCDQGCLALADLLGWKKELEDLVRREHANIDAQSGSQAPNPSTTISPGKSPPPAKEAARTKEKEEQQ
Test: co-IP; anti-SIRT2 antibody (rabbit IgG as control) and protein A/G magnetic beads on lysates of BV-2 cells; cells treated with S-KET or R-KET (100 µM, 2 h) and then LPS (20 ng/mL, 1 h); lysis buffer 25 mM Tris pH 8.0, 150 mM KCl, 5 mM EDTA, 0.5% NP-40; p65 and Ac-p65 detected by immunoblotting

Substance	binding
NF-κB subunit p65 (from UniProt Q04207 1-549)	binds
acetylated p65 (from UniProt Q04207 1-549)	binds
